Measured values as given in publication PMC6972752.
No constants are given. Whether binding was seen depends on the method and setting. In cells and extracts the contact can be indirect. Where a sequence is shown, tags or fusion partners need not be part of it.

By UniProt entry, the sequences of proteins in these tests, tags left out.
UniProt Q15751: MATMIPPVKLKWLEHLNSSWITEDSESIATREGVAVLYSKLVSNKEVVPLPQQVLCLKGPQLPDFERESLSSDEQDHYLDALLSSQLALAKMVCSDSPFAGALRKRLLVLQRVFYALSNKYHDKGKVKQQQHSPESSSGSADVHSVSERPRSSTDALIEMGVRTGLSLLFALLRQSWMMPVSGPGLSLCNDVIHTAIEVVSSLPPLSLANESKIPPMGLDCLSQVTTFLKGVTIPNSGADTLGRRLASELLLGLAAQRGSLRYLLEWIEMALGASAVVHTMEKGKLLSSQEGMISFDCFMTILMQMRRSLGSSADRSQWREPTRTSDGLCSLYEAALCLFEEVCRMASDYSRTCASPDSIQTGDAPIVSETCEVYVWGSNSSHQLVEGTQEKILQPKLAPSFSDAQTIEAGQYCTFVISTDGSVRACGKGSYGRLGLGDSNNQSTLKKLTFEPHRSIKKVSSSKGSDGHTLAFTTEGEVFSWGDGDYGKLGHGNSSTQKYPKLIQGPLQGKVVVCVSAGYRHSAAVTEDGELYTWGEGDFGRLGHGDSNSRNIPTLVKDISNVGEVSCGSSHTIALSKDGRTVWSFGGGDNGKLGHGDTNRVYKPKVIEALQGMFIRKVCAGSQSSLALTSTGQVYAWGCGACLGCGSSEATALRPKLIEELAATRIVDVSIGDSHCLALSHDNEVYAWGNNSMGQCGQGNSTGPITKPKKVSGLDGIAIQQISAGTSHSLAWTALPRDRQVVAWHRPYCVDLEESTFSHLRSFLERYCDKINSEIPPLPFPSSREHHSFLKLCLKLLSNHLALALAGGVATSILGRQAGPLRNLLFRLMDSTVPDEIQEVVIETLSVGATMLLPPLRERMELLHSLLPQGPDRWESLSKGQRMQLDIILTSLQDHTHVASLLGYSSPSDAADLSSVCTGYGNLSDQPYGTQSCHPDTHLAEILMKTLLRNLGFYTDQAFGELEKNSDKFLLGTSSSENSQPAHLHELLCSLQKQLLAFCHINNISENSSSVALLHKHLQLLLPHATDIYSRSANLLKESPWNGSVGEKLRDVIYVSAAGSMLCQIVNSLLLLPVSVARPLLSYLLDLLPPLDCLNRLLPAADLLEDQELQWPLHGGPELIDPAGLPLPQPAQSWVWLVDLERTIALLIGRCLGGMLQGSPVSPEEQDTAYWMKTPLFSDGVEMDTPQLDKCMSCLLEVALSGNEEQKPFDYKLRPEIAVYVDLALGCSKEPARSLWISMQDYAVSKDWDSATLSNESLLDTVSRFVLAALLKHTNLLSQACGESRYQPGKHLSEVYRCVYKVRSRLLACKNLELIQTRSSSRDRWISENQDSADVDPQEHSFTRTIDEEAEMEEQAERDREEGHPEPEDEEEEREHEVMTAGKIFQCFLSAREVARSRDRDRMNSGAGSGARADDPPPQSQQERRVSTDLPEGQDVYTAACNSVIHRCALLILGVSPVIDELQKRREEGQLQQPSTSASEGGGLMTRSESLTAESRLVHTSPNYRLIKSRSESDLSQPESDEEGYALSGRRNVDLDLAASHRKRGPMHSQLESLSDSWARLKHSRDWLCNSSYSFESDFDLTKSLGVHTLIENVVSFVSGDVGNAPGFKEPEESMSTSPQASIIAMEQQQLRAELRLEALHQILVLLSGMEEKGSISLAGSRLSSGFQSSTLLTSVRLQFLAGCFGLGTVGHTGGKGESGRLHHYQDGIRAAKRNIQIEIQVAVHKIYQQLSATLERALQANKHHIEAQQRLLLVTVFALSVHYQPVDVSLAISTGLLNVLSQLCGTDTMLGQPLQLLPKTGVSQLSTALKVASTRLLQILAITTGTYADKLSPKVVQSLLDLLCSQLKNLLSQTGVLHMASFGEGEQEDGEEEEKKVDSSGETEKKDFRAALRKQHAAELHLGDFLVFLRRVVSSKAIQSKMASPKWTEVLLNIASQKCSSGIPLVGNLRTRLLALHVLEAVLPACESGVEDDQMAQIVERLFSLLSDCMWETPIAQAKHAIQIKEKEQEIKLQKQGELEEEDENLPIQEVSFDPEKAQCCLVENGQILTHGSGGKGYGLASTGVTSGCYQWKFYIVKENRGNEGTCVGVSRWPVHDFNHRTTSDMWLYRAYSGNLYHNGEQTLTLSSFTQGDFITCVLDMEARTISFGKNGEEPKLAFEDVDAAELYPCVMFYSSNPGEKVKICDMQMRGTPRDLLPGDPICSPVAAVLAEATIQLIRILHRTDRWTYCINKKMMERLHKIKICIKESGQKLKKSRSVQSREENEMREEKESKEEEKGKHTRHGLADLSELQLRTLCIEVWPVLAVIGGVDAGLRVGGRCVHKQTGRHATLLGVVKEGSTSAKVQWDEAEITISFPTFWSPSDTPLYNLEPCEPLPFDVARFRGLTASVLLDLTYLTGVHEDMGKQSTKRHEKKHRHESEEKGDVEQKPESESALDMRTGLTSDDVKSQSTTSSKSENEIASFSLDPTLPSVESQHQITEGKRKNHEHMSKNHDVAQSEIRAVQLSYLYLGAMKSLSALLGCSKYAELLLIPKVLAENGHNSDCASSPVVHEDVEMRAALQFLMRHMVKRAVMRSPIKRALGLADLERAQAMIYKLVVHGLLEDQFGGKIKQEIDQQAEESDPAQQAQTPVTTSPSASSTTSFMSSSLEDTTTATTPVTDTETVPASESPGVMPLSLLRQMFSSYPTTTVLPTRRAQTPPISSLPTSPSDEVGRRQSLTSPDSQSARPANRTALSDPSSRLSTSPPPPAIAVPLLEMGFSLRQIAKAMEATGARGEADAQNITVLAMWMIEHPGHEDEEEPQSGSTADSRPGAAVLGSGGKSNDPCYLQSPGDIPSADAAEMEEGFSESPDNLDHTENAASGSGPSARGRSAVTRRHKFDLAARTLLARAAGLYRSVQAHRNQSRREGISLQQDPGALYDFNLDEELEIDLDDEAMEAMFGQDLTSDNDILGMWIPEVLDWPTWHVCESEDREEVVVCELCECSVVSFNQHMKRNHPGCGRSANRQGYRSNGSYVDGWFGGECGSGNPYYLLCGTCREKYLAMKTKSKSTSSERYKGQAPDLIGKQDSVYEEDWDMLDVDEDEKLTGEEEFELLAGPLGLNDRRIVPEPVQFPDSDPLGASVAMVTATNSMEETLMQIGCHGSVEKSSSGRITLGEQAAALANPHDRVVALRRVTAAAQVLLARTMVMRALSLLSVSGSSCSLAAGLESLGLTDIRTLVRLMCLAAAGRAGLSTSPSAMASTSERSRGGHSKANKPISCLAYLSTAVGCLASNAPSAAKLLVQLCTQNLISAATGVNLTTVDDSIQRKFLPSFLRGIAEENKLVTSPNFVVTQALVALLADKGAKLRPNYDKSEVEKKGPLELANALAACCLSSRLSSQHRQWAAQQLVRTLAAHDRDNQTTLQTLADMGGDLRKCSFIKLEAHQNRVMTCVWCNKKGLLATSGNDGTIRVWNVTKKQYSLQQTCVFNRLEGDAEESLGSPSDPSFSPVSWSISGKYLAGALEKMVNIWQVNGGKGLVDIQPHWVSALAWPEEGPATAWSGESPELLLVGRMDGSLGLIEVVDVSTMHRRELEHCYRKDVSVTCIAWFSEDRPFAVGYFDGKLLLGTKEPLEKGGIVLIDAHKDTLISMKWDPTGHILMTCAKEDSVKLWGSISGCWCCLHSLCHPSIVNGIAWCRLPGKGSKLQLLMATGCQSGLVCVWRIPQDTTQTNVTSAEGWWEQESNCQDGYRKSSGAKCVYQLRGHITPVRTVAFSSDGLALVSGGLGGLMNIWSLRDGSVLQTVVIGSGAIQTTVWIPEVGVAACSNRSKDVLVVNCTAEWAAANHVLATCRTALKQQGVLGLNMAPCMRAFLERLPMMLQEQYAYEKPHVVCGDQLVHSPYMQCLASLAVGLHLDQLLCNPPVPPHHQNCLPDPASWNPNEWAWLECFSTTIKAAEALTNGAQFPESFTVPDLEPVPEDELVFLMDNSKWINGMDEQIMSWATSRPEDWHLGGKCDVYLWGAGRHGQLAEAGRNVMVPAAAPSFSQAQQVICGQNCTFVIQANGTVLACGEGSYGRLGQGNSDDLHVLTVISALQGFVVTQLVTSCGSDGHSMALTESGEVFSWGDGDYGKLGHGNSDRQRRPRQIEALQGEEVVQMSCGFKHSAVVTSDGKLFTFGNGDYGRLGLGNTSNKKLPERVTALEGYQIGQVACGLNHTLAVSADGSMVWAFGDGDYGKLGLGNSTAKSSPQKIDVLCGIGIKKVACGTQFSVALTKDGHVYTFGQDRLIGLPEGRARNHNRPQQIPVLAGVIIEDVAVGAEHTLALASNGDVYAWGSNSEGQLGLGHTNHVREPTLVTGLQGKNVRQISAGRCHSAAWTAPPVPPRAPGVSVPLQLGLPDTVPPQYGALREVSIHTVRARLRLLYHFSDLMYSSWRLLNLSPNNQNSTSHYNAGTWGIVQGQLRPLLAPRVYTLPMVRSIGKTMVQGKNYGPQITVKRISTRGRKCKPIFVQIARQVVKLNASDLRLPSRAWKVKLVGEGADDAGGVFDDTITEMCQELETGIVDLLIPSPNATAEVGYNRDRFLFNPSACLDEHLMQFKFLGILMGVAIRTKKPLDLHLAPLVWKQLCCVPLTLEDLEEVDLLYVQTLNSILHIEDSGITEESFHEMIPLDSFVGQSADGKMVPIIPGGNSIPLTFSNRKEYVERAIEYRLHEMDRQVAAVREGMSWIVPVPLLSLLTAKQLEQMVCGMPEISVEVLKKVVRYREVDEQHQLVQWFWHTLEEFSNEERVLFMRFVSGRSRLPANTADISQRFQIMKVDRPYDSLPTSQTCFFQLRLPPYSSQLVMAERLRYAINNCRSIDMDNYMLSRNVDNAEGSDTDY

Target: ubiquitin E3 ligase HERC1 (human (endogenous in HEK-293T)) (UniProt Q15751)
Assay: co-IP; supernatants of NP40 lysates of HEK-293T cells (untransfected, or transfected with Flag-MKK3) incubated at 4 °C for 2 h with anti-HERC1 polyclonal antibodies (Bvg6, 411; 363, 410) or pre-immune serum, then protein A-Sepharose for 1 h; four washes with NP40 buffer; immunoblot

B1: MAPK kinase MKK3 (endogenous) (enzyme, UniProt P46734 1-347)
chain: MESPASSQPASMPQSKGKSKRKKDLRISCMSKPPAPNPTPPRNLDSRTFITIGDRNFEVEADDLVTISELGRGAYGVVEKVRHAQSGTIMAVKRIRATVNSQEQKRLLMDLDINMRTVDCFYTVTFYGALFREGDVWICMELMDTSLDKFYRKVLDKNMTIPEDILGEIAVSIVRALEHLHSKLSVIHRDVKPSNVLINKEGHVKMCDFGISGYLVDSVAKTMDAGCKPYMAPERINPELNQKGYNVKSDVWSLGITMIEMAILRFPYESWGTPFQQLKQVVEEPSPQLPADRFSPEFVDFTAQCLRKNPAERMSYLELMEHPFFTLHKTKKTDIAAFVKEILGEDS
binding: no binding

B2: Flag-MKK3 (enzyme, UniProt P46734 1-347)
chain: B1 chain
binding: no binding
